Results deposited as PubChem BioAssay AID1159578 (Peter MacCallum Cancer Centre, 2015).

Purpose: 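Genome-wide hunt for genes controlling movement of lymphatic endothelial cells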 (primary screen)
System: human lymphatic endothelial cells
Knock-down reagent: siRNA pool against human genes, 40 nM
Time to read-out: 48 h after transfection
Detection: 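High-content imaging of dye-stained cells in a scratch assay measures filled wound area and nuclei per well; duplicate means given as ratio to mock and robust z-score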
Reading the numbers: migration robust z-score: higher = faster migration into the scratch; migration relative to mock: higher = more scratch area covered than mock; nuclei per well: higher = more cells in the well
Rule for the call: 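Pools averaging fewer than 3300 nuclei are never called; remaining pools count as changed when migration robust z lies outside -2 to 2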
Calls: active = migration changed; inactive = no migration change, or too few cells
This is an unselected part of about 18,000 reagents. About 1,030 of them (5.7%) count as active. 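Inactive calls also include pools with fewer than 3300 nuclei, whose migration was not assessed.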 Raw values vary from plate to plate and are shown uncorrected. Entries without a mark were called inactive.

| gene symbol | migration robust z-score | migration class with cell-count check | migration relative to mock | nuclei per well, duplicate mean |
| --- | --- | --- | --- | --- |
| RSRC2 | -0.23 | migration z between -2 and 2; enough cells | 0.82 | 6322 |
| PRKAG1 | 0.13 | migration z between -2 and 2; enough cells | 0.83 | 4120 |
| TPD52 | -0.4 | migration z between -2 and 2; enough cells | 0.78 | 6426 |
| DOCK2 | 0.7 | migration z between -2 and 2; enough cells | 1.06 | 6337 |
| TAF13 | 0.8 | migration z between -2 and 2; enough cells | 1.09 | 7108 |
| LRP5L | 0.45 | migration z between -2 and 2; enough cells | 1.01 | 6801 |
| FBXO21 | 0.93 | migration z between -2 and 2; enough cells | 0.98 | 5417 |
| EMB | 0.89 | migration z between -2 and 2; enough cells | 1.12 | 6118 |
| DHTKD1 | -0.18 | migration z between -2 and 2; enough cells | 0.77 | 6956 |
| SLC47A2 | -4.41 (active) | migration z below -2; enough cells | -0.26 | 5427 |
| CDCA7L | 0.12 | migration z between -2 and 2; enough cells | 0.92 | 5254 |
| COLCA1 | -1.25 | migration z between -2 and 2; enough cells | 0.56 | 5388 |
| OR7C2 | 0.7 | migration z between -2 and 2; enough cells | 1.06 | 4410 |
| SSBP3 | -0.36 | migration z between -2 and 2; enough cells | 0.79 | 5080 |
| ARHGAP15 | 0.58 | migration z between -2 and 2; enough cells | 1.04 | 5748 |
| LPIN2 | -2.11 | under 3300 nuclei; migration not judged | 0.34 | 3133 |
| CENPV | 0.28 | migration z between -2 and 2; enough cells | 0.96 | 6002 |
| NMRK2 | 1.72 | migration z between -2 and 2; enough cells | 1.33 | 5837 |
| EXOSC10 | -0.52 | migration z between -2 and 2; enough cells | 0.7 | 4870 |
| TRIM46 | 0.62 | migration z between -2 and 2; enough cells | 0.92 | 4906 |
| DEUP1 | -0.38 | migration z between -2 and 2; enough cells | 0.79 | 6384 |
| TFR2 | -0.26 | migration z between -2 and 2; enough cells | 0.76 | 6084 |
| TSLIG3A | 1.56 | migration z between -2 and 2; enough cells | 1.29 | 6024 |
| NEDD8 | 0.42 | migration z between -2 and 2; enough cells | 0.88 | 5591 |
| IGSF11 | -0.3 | migration z between -2 and 2; enough cells | 0.81 | 5125 |
| TBCCD1 | 0.67 | migration z between -2 and 2; enough cells | 1.06 | 6200 |
| PTPRN | -0.9 | migration z between -2 and 2; enough cells | 0.63 | 4025 |
| KIAA0232 | -1.62 | migration z between -2 and 2; enough cells | 0.46 | 5078 |
| LINS1 | 0.09 | migration z between -2 and 2; enough cells | 0.91 | 6267 |

Individual results from the entries so far.
Entry for TAF13 under “nuclei per well, duplicate mean”: 7108
Under “migration robust z-score”, TBCCD1 reads 0.67
Value for TFR2 in “nuclei per well, duplicate mean”: 6084

The results go on.
| gene symbol | migration robust z-score | migration class with cell-count check | migration relative to mock | nuclei per well, duplicate mean |
| --- | --- | --- | --- | --- |
| MAP6 | 0.88 | migration z between -2 and 2; enough cells | 0.98 | 4561 |
| BAIAP3 | -0.9 | migration z between -2 and 2; enough cells | 0.66 | 5624 |
| KLHL24 | 2.73 (active) | migration z above 2; enough cells | 1.59 | 6938 |
| PCDHA1 | 0.16 | migration z between -2 and 2; enough cells | 0.92 | 5958 |
| DCPS | 0.73 | migration z between -2 and 2; enough cells | 0.94 | 5434 |
| PAK4 | -1.12 | migration z between -2 and 2; enough cells | 0.59 | 3670 |
| NR5A1 | -1.12 | migration z between -2 and 2; enough cells | 0.59 | 3687 |
| EMSY | -1.23 | under 3300 nuclei; migration not judged | 0.56 | 2348 |
| DCUN1D2 | 1.3 | migration z between -2 and 2; enough cells | 1.05 | 4994 |
| RTL10 | -4.39 | under 3300 nuclei; migration not judged | -0.26 | 2342 |
| PI4KA | -3.79 (active) | migration z below -2; enough cells | 0.08 | 4779 |
| SIT1 | -0.66 | migration z between -2 and 2; enough cells | 0.71 | 4875 |
| CLEC3A | -0.76 | migration z between -2 and 2; enough cells | 0.68 | 5907 |
| CD40LG | -0.44 | migration z between -2 and 2; enough cells | 0.77 | 6426 |
| PRR21 | -3.68 (active) | migration z below -2; enough cells | -0.07 | 3550 |
| RSPH4A | 0.89 | migration z between -2 and 2; enough cells | 1.12 | 5796 |
| MLST8 | 0.03 | migration z between -2 and 2; enough cells | 0.89 | 5634 |
| PRKDC | 1.97 | migration z between -2 and 2; enough cells | 1.19 | 4488 |
| DBH | 0.73 | migration z between -2 and 2; enough cells | 0.94 | 5683 |
| RNF185 | 0.1 | migration z between -2 and 2; enough cells | 0.82 | 4817 |
| SLC35A4 | 0.34 | migration z between -2 and 2; enough cells | 0.98 | 7592 |
| GEMIN4 | 0.11 | under 3300 nuclei; migration not judged | 0.91 | 3092 |
| TP53INP1 | -0.11 | migration z between -2 and 2; enough cells | 0.86 | 5140 |
| ARID4B | 2.86 (active) | migration z above 2; enough cells | 1.62 | 6716 |
| HERC4 | -1.04 | migration z between -2 and 2; enough cells | 0.6 | 4752 |
| FAM161B | -0.58 | migration z between -2 and 2; enough cells | 0.74 | 4561 |
| PSMD4 | 0.11 | migration z between -2 and 2; enough cells | 0.92 | 5762 |
| RBMY1B | -0.49 | migration z between -2 and 2; enough cells | 0.76 | 5502 |
| WRAP53 | -0.56 | migration z between -2 and 2; enough cells | 0.74 | 6224 |
| AUP1 | 0.14 | migration z between -2 and 2; enough cells | 0.92 | 5520 |
| SLC10A1 | -0.54 | migration z between -2 and 2; enough cells | 0.74 | 6946 |
| MATCAP2 | 0.34 | migration z between -2 and 2; enough cells | 0.97 | 6210 |
| APBB1 | -0.66 | migration z between -2 and 2; enough cells | 0.72 | 4154 |
| B3GLCT | 1.16 | migration z between -2 and 2; enough cells | 1.19 | 6579 |
| VDAC3 | 1.3 | migration z between -2 and 2; enough cells | 1.06 | 5604 |
| OXTR | 1.19 | migration z between -2 and 2; enough cells | 1.04 | 5732 |
| PPFIA4 | 0.05 | migration z between -2 and 2; enough cells | 0.82 | 5983 |
| FSAF1 | -0.41 | migration z between -2 and 2; enough cells | 0.78 | 5466 |
| GNE | 1.48 | migration z between -2 and 2; enough cells | 1.09 | 7130 |
| RHBDF2 | -0.85 | migration z between -2 and 2; enough cells | 0.67 | 5927 |
| LMNB1 | -2.23 (active) | migration z below -2; enough cells | 0.31 | 5986 |
| CX3CL1 | -0.08 | migration z between -2 and 2; enough cells | 0.86 | 7534 |
| ZMYND19 | 0.48 | migration z between -2 and 2; enough cells | 1.01 | 6106 |
| TMOD1 | -1.71 | under 3300 nuclei; migration not judged | 0.44 | 3296 |
